From publication doi:10.1101/695577

T1: EGFP-ORP5 (UniProt Q9H0X9)
T1 sequence: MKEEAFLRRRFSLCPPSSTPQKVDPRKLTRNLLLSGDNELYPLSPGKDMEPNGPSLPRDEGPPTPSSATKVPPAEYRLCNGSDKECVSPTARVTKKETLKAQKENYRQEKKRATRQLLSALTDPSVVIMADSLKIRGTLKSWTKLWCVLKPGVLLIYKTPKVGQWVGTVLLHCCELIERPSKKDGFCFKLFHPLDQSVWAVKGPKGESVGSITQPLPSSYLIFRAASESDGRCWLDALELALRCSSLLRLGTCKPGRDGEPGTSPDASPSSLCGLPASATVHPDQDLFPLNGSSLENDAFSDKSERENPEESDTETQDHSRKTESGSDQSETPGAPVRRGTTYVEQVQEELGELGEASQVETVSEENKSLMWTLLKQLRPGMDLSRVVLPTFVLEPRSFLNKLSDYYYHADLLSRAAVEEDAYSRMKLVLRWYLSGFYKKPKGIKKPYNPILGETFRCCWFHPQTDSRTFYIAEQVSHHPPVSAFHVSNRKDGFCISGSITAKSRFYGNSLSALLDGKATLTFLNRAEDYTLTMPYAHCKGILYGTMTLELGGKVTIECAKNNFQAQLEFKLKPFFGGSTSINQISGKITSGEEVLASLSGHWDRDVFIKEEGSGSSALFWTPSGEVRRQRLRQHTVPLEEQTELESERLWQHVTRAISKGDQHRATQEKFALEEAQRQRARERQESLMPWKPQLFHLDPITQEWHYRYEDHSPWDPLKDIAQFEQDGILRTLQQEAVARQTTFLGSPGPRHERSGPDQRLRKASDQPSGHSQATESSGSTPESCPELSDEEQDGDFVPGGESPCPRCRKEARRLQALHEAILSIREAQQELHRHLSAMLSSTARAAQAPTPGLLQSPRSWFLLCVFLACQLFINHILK

B1: ORP8 (endogenous) (protein, UniProt Q9BZF1 1-889)
chain: MEGGLADGEPDRTSLLGDSKDVLGPSTVVANSDESQLLTPGKMSQRQGKEAYPTPTKDLHQPSLSPASPHSQGFERGKEDISQNKDESSLSMSKSKSESKLYNGSEKDSSTSSKLTKKESLKVQKKNYREEKKRATKELLSTITDPSVIVMADWLKIRGTLKSWTKLWCVLKPGVLLIYKTQKNGQWVGTVLLNACEIIERPSKKDGFCFKLFHPLEQSIWAVKGPKGEAVGSITQPLPSSYLIIRATSESDGRCWMDALELALKCSSLLKRTMIREGKEHDLSVSSDSTHVTFYGLLRANNLHSGDNFQLNDSEIERQHFKDQDMYSDKSDKENDQEHDESDNEVMGKSEESDTDTSERQDDSYIEPEPVEPLKETTYTEQSHEELGEAGEASQTETVSEENKSLIWTLLKQVRPGMDLSKVVLPTFILEPRSFLDKLSDYYYHADFLSEAALEENPYFRLKKVVKWYLSGFYKKPKGLKKPYNPILGETFRCLWIHPRTNSKTFYIAEQVSHHPPISAFYVSNRKDGFCLSGSILAKSKFYGNSLSAILEGEARLTFLNRGEDYVMTMPYAHCKGILYGTMTLELGGTVNITCQKTGYSAILEFKLKPFLGSSDCVNQISGKLKLGKEVLATLEGHWDSEVFITDKKTDNSEVFWNPTPDIKQWRLIRHTVKFEEQGDFESEKLWQRVTRAINAKDQTEATQEKYVLEEAQRQAARDRKTKNEEWSCKLFELDPLTGEWHYKFADTRPWDPLNDMIQFEKDGVIQTKVKHRTPMVSVPKMKHKPTRQQKKVAKGYSSPEPDIQDSSGSEAQSVKPSTRRKKGIELGDIQSSIESIKQTQEEIKRNIMALRNHLVSSTPATDYFLQQKDYFIIFLLILLQVIINFMFK
B2: SAM50 (endogenous) (protein, UniProt Q9Y512 1-469)
chain: MGTVHARSLEPLPSSGPDFGGLGEEAEFVEVEPEAKQEILENKDVVVQHVHFDGLGRTKDDIIICEIGDVFKAKNLIEVMRKSHEAREKLLRLGIFRQVDVLIDTCQGDDALPNGLDVTFEVTELRRLTGSYNTMVGNNEGSMVLGLKLPNLLGRAEKVTFQFSYGTKETSYGLSFFKPRPGNFERNFSVNLYKVTGQFPWSSLRETDRGMSAEYSFPIWKTSHTVKWEGVWRELGCLSRTASFAVRKESGHSLKSSLSHAMVIDSRNSSILPRRGALLKVNQELAGYTGGDVSFIKEDFELQLNKQLIFDSVFSASFWGGMLVPIGDKPSSIADRFYLGGPTSIRGFSMHSIGPQSEGDYLGGEAYWAGGLHLYTPLPFRPGQGGFGELFRTHFFLNAGNLCNLNYGEGPKAHIRKLAECIRWSYGAGIVLRLGNIARLELNYCVPMGVQTGDRICDGVQFGAGIRFL

Target: T1, EGFP-ORP5
Test: affinity purification with mass spectrometry

Binder	binding
B1	binds
B2	binds

These are yes or no findings as the source states them, for the method shown. Binding seen in cells or lysates may run through a third protein. A yes stands for co-enrichment or nearness to the bait. Other partners may have been found. Tags and fused reporters may be left off the sequences shown.
